Data reported in patent US20090068202A1.
Results are given in words; binding and its absence hold for the method and conditions named. Some binding calls cover weakened binding; strength is not graded here.

The chains behind the UniProt entries cited, without tags or fusion partners. Where a name states a change or a piece, a line headed by the entry shows the natural chain unless it says otherwise.
UniProt P40259: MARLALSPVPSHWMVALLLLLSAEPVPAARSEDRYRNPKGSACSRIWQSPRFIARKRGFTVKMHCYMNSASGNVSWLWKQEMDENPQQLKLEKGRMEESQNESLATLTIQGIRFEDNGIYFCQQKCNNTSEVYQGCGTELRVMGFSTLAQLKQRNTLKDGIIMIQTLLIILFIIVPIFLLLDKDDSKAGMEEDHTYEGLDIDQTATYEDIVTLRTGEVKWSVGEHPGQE

B1: 2F2-grafted "humanized" antibody variant 7 (hu2F2.D7) as a Fab displayed on phage (Fab, V domains shown)
VH: EVQLVESGGGLVQPGGSLRLSCAASGYTFTSYWMNWVRQAPGKGLEWVGMIDPSDSETHYNHIFKDRFTISADTSKNTAYLQMNSLRAEDTAVYYCARNLYLWGQGTLVTVSS
VL: DIQMTQSPSSLSASVGDRVTITCKSSQSLLDSDGKTYLNWYQQKPGKAPKLLIYLVSKLDSGVPSRFSGSGSGTDFTLTISSLQPEDFATYYCFQGTHFPFTFGQGTKVEIKR
B2: 2F2-grafted "humanized" antibody variant 7 (hu2F2.D7), reformatted as IgG (antibody, V domains shown)
VH: B1 VH
VL: B1 VL

Columns and labels:
[1] = target: extracellular domain of human CD79b (huCD79becd) (human) (UniProt P40259); assay: phage selection on immobilized antigen
[2] = target: extracellular domain of human CD79b (huCD79becd) (human) (UniProt P40259); assay: Biacore (SPR), antigen immobilized

Binder	binding [1]	binding [2]
B1	binds	–
B2	–	binds
